Data taken from paper PMC5650356.
These are yes or no findings as the source states them, for the method shown. In cells and extracts the contact can be indirect. Some entries that bind do so weakly or less than the wild type. Tags and fused reporters may be left off the sequences shown. One block for each molecule: values may come before it.

Chains of the proteins cited; added tags and fusions are not shown.
UniProt Q9ULW0: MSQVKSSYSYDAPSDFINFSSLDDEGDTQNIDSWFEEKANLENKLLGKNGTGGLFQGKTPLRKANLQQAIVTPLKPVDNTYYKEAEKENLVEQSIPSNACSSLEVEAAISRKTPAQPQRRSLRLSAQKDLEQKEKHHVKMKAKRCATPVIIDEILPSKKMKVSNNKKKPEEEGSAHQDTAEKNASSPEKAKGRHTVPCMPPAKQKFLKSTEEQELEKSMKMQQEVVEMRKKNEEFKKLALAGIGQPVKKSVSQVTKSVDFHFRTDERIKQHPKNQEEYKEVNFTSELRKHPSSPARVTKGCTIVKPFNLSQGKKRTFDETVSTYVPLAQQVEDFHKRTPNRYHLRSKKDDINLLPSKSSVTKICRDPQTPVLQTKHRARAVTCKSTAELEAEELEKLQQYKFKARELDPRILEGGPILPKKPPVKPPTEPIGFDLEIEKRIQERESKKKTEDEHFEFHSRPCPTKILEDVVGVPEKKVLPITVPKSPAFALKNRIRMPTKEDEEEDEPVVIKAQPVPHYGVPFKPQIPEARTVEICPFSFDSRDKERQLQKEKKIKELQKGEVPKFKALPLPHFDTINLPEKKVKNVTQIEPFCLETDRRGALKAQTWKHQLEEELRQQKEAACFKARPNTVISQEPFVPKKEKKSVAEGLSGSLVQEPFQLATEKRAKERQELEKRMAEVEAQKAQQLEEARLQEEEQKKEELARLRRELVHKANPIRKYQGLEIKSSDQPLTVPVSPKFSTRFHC

Legend:
Test in all cases: co-IP; flag-tagged AGS/FAM83D cells, mitotic (300nM nocodazole 24h, shake-off); NP-40 lysis buffer, pre-cleared; primary antibodies overnight at 4 °C, protein A/G plus agarose 4h at 4 °C; five washes in lysis buffer; Western blot
[1] = target: T1, Flag-tagged FAM83D (family with sequence similarity 83, member D) (human) (UniProt Q9H4H8)
T1 sequence: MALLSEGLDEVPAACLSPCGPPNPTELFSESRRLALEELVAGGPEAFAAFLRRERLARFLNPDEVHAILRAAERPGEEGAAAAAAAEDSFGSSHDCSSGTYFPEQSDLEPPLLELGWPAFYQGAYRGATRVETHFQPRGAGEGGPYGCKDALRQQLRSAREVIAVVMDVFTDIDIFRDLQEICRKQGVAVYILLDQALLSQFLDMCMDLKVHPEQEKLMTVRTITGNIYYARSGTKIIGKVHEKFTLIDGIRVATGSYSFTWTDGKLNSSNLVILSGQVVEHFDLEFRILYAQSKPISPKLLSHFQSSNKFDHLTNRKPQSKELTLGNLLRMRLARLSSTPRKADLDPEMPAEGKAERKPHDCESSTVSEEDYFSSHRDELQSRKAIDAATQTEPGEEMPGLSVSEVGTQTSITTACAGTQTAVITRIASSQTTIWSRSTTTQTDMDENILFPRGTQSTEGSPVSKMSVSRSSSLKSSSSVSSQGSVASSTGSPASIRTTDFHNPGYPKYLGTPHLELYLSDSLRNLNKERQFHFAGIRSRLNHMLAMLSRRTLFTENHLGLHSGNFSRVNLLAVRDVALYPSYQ

[2] = target: T2, AURKA (aurora kinase A) (human (endogenous in AGS)) (UniProt O14965)
T2 sequence: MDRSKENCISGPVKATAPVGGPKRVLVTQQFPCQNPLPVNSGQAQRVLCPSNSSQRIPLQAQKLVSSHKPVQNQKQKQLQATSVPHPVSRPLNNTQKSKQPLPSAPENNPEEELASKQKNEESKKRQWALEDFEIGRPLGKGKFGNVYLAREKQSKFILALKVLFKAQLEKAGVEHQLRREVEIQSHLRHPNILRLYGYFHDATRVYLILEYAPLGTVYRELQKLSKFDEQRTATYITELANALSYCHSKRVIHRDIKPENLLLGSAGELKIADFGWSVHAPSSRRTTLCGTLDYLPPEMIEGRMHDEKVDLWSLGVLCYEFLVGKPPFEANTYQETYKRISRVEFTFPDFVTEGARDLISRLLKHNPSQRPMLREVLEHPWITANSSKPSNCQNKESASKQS

[3] = target: TPX2 (targeting protein for Xklp2) (human (endogenous in AGS)) (UniProt Q9ULW0)
[4] = target: T3, HMMR (hyaluronan-mediated motility receptor) (human (endogenous in AGS)) (UniProt O75330)
T3 sequence: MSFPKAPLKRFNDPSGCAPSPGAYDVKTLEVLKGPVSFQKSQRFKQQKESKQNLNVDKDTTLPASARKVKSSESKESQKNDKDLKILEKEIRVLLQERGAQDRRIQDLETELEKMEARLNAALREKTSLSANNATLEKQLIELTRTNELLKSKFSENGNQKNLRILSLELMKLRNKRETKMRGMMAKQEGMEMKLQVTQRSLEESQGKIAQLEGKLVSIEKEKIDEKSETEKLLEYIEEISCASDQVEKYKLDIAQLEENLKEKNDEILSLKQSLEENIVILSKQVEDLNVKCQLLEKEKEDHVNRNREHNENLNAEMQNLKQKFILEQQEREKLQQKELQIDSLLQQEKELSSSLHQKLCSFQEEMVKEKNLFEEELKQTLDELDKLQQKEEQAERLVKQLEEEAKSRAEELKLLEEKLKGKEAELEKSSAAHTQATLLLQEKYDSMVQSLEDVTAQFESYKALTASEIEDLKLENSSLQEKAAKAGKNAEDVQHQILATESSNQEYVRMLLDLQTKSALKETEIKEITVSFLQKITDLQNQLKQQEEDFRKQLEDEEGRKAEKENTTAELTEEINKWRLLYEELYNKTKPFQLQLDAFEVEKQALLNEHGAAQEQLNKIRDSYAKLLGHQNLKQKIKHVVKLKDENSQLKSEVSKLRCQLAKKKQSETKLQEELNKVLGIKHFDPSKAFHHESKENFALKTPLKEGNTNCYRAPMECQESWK

B1: HMMR (hyaluronan-mediated motility receptor) (protein, UniProt O75330 1-724)
chain: T3 sequence
binding [1]: binds

B3: Flag-tagged FAM83D (family with sequence similarity 83, member D) (protein, UniProt Q9H4H8 1-585)
chain: T1 sequence
binding [2]: binds | binding [3]: binds | binding [4]: binds

B4: AURKA (aurora kinase A) (protein, UniProt O14965 1-403)
chain: T2 sequence
binding [1]: binds

Further lines, results first:

binding [1]: binds
Molecule: TPX2 (targeting protein for Xklp2) (from UniProt Q9ULW0 1-747)

binding [1]: binds
B2: endogenous FAM83D (protein, UniProt Q9H4H8 1-585)
chain: T1 sequence
